PubChem BioAssay AID1159584, Peter MacCallum Cancer Centre, 2016
This is a random part of about 18,000 reagents tested. Reagent sequences are not shown. Not stated in the record: the amount of reagent, the time to read-out.

Screen: 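Knock-downs that harm CDH1-null cells more than parental MCF10A cells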 (primary screen)
Cells: human MCF10A breast epithelial cells, parental and CDH1-null
Reagents: siRNA against human genes
Measurement: 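Cell viability by CellTiter-Glo ATP luminescence, each line scaled to the mean of mock wells across plates, then CDH1-null over parental ratio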
Reading the numbers: CDH1-null / parental viability ratio: higher = CDH1-null cells survive relatively better than parental; CDH1-null viability vs mock: higher = more viable CDH1-null cells; parental viability vs mock: higher = more viable parental cells

| Target gene | CDH1-null / parental viability ratio | CDH1-null viability vs mock (fraction of mock) | parental viability vs mock (fraction of mock) |
| --- | --- | --- | --- |
| ANXA4 (annexin A4) | 1.59 | 0.46 | 0.29 |
| PORCN (porcupine O-acyltransferase) | 1.12 | 0.63 | 0.56 |
| TMEM35A (transmembrane protein 35A) | 0.62 | 0.44 | 0.71 |
| OR2B11 (olfactory receptor family 2 subfamily B member 11) | 1.08 | 0.69 | 0.64 |
| IFIT2 (interferon induced protein with tetratricopeptide repeats 2) | 0.98 | 0.86 | 0.88 |
| IFNG (interferon gamma) | 0.9 | 1.05 | 1.17 |
| OR4A16 (olfactory receptor family 4 subfamily A member 16) | 0.86 | 0.65 | 0.76 |
| PTPN7 (protein tyrosine phosphatase non-receptor type 7) | 1.56 | 0.92 | 0.59 |
| RABGAP1L (RAB GTPase activating protein 1 like) | 0.77 | 0.72 | 0.93 |
| IGFN1 | 0.88 | 0.74 | 0.84 |
| HM13 (histocompatibility minor 13) | 1.49 | 0.76 | 0.51 |
| TLDC2 (TBC/LysM-associated domain containing 2) | 0.97 | 0.83 | 0.86 |
| IL6ST (interleukin 6 cytokine family signal transducer) | 1.09 | 0.94 | 0.86 |
| ALG9 (ALG9 alpha-1,2-mannosyltransferase) | 0.96 | 0.79 | 0.82 |
| NUCLEOLIN (nucleolin multifunctional protein) | 1.39 | 0.78 | 0.56 |
| TEX44 (testis expressed 44) | 0.83 | 0.6 | 0.72 |
| MFAP4 (microfibril associated protein 4) | 1.03 | 0.9 | 0.87 |
| RAB3A (RAB3A, member RAS oncogene family) | 1.06 | 1.07 | 1.01 |
| SSR4 (signal sequence receptor subunit 4) | 1.29 | 0.72 | 0.56 |
| PEA15 (proliferation and apoptosis adaptor protein 15) | 1.03 | 1.01 | 0.98 |
| TMEM256 (transmembrane protein 256) | 1 | 0.84 | 0.84 |
| NPHS1 (NPHS1 adhesion molecule, nephrin) | 1.06 | 0.83 | 0.78 |
| PCDH15 (protocadherin related 15) | 0.99 | 0.97 | 0.98 |
| ZPLD1 (zona pellucida like domain containing 1) | 1.11 | 1.04 | 0.94 |
| SNTN (sentan, cilia apical structure protein) | 1.01 | 0.87 | 0.86 |
| IGSF1 (immunoglobulin superfamily member 1) | 1.13 | 0.93 | 0.82 |
| CNOT3 (CCR4-NOT transcription complex subunit 3) | 1.52 | 0.7 | 0.46 |
| CSMD3 (CUB and Sushi multiple domains 3) | 0.79 | 0.91 | 1.15 |
| CARD9 (caspase recruitment domain family member 9) | 0.9 | 0.66 | 0.73 |
| FAM81B (family with sequence similarity 81 member B) | 1.01 | 0.83 | 0.82 |
| TLNRD1 (talin rod domain containing 1) | 1.22 | 0.9 | 0.74 |
| NUCB2 (nucleobindin 2) | 1.21 | 0.63 | 0.52 |
| DOCK6 (dedicator of cytokinesis 6) | 0.9 | 0.82 | 0.91 |
| STAC (SH3 and cysteine rich domain) | 0.9 | 0.52 | 0.58 |
| MSC (musculin) | 0.95 | 0.61 | 0.64 |
| GSTM5 (glutathione S-transferase mu 5) | 1.01 | 0.92 | 0.91 |
| SIMC1 (SUMO interacting motifs containing 1) | 1.04 | 0.82 | 0.79 |
| PLXNA2 (plexin A2) | 1.05 | 0.6 | 0.57 |
| ZBTB49 (zinc finger and BTB domain containing 49) | 1.06 | 0.72 | 0.68 |
| TMPRSS4 (transmembrane serine protease 4) | 1.13 | 0.88 | 0.78 |
| EYA1 (EYA transcriptional coactivator and phosphatase 1) | 1.3 | 0.87 | 0.67 |
| ZIK1 (zinc finger protein interacting with K protein 1) | 1.19 | 1.02 | 0.86 |
| COL3A1 (collagen type III alpha 1 chain) | 1.04 | 0.96 | 0.92 |
| TXNDC2 (thioredoxin domain containing 2) | 0.88 | 0.76 | 0.86 |
| SMYD3 (SET and MYND domain containing 3) | 1.11 | 1.02 | 0.92 |
| ESYT2 (extended synaptotagmin 2) | 1.12 | 0.76 | 0.68 |
| CHST9 (carbohydrate sulfotransferase 9) | 0.86 | 0.61 | 0.71 |
| NAT10 (N-acetyltransferase 10) | 1.05 | 1.03 | 0.98 |
| EPHX1 (epoxide hydrolase 1) | 0.89 | 0.62 | 0.7 |
| CCDC34 (coiled-coil domain containing 34) | 0.91 | 0.64 | 0.7 |
| CD22 (CD22 molecule) | 0.94 | 0.8 | 0.85 |
| STT3A (STT3 oligosaccharyltransferase complex catalytic subunit A) | 0.97 | 0.98 | 1.01 |
| GLDC (glycine decarboxylase) | 1.01 | 0.8 | 0.79 |
| TSHR (thyroid stimulating hormone receptor) | 0.97 | 0.86 | 0.89 |
| SPEM1 (spermatid maturation 1) | 0.87 | 0.59 | 0.68 |
| NAA38 (N-alpha-acetyltransferase 38, NatC auxiliary subunit) | 0.96 | 0.52 | 0.54 |
| CCDC191 (coiled-coil domain containing 191) | 1.18 | 0.8 | 0.68 |
| PKIG (cAMP-dependent protein kinase inhibitor gamma) | 1.05 | 0.86 | 0.82 |

7 entries from above, set out differently:
{"Target gene":"SNTN (sentan, cilia apical structure protein)","CDH1-null / parental viability ratio":1.01,"CDH1-null viability vs mock (fraction of mock)":0.87,"parental viability vs mock (fraction of mock)":0.86}
{"Target gene":"IGSF1 (immunoglobulin superfamily member 1)","CDH1-null / parental viability ratio":1.13,"CDH1-null viability vs mock (fraction of mock)":0.93,"parental viability vs mock (fraction of mock)":0.82}
{"Target gene":"CNOT3 (CCR4-NOT transcription complex subunit 3)","CDH1-null / parental viability ratio":1.52,"CDH1-null viability vs mock (fraction of mock)":0.7,"parental viability vs mock (fraction of mock)":0.46}
{"Target gene":"CSMD3 (CUB and Sushi multiple domains 3)","CDH1-null / parental viability ratio":0.79,"CDH1-null viability vs mock (fraction of mock)":0.91,"parental viability vs mock (fraction of mock)":1.15}
{"Target gene":"CARD9 (caspase recruitment domain family member 9)","CDH1-null / parental viability ratio":0.9,"CDH1-null viability vs mock (fraction of mock)":0.66,"parental viability vs mock (fraction of mock)":0.73}
{"Target gene":"FAM81B (family with sequence similarity 81 member B)","CDH1-null / parental viability ratio":1.01,"CDH1-null viability vs mock (fraction of mock)":0.83,"parental viability vs mock (fraction of mock)":0.82}
{"Target gene":"TLNRD1 (talin rod domain containing 1)","CDH1-null / parental viability ratio":1.22,"CDH1-null viability vs mock (fraction of mock)":0.9,"parental viability vs mock (fraction of mock)":0.74}

Continued.
| Target gene | CDH1-null / parental viability ratio | CDH1-null viability vs mock (fraction of mock) | parental viability vs mock (fraction of mock) |
| --- | --- | --- | --- |
| PKDCC (protein kinase domain containing, cytoplasmic) | 0.99 | 0.86 | 0.87 |
| RASGRP4 (RAS guanyl releasing protein 4) | 0.95 | 0.76 | 0.8 |
| OR4K14 (olfactory receptor family 4 subfamily K member 14) | 0.71 | 0.47 | 0.66 |
| FATE1 (fetal and adult testis expressed 1) | 1 | 0.42 | 0.42 |
| KCNE3 | 1.39 | 1.1 | 0.79 |
| KRT2 (keratin 2) | 1.02 | 0.49 | 0.48 |
| ZRSR2 | 0.95 | 0.88 | 0.93 |
| TGFB1 (transforming growth factor beta 1) | 0.74 | 0.62 | 0.84 |
| DTD1 (D-aminoacyl-tRNA deacylase 1) | 1.01 | 0.86 | 0.85 |
| MRPS31 (mitochondrial ribosomal protein S31) | 1.01 | 0.98 | 0.97 |
| ZNF607 (zinc finger protein 607) | 0.92 | 0.72 | 0.78 |
| RSPH6A (radial spoke head 6 homolog A) | 1.1 | 1.1 | 1 |
| FAM13B (family with sequence similarity 13 member B) | 1.07 | 0.94 | 0.88 |
| CDK17 (cyclin dependent kinase 17) | 1.04 | 0.85 | 0.82 |
| TUBA8 (tubulin alpha 8) | 0.99 | 0.76 | 0.77 |
| SLC25A25 | 1.11 | 1 | 0.9 |
| KCTD7 (potassium channel tetramerization domain containing 7) | 1.2 | 0.84 | 0.7 |
| TRNT1 (tRNA nucleotidyl transferase 1) | 0.81 | 0.68 | 0.84 |
| NFE2L2 (NFE2 like bZIP transcription factor 2) | 1.14 | 0.98 | 0.86 |
| DSG2 (desmoglein 2) | 1.42 | 0.94 | 0.66 |
| IL17F (interleukin 17F) | 1.24 | 0.92 | 0.74 |
| GINS4 (GINS complex subunit 4) | 1.32 | 0.96 | 0.73 |
| NMT2 (N-myristoyltransferase 2) | 0.9 | 0.86 | 0.96 |
| MCF2L2 (MCF.2 cell line derived transforming sequence-like 2) | 0.97 | 0.87 | 0.9 |
| IGBP1 (immunoglobulin binding protein 1) | 1.35 | 0.92 | 0.68 |
| SH2D3A (SH2 domain containing 3A) | 1.05 | 0.85 | 0.81 |
| PHTF2 (putative homeodomain transcription factor 2) | 0.97 | 0.9 | 0.93 |
| SDC2 (syndecan 2) | 1.25 | 0.75 | 0.6 |
| ZNF532 (zinc finger protein 532) | 1.14 | 0.66 | 0.58 |
